The values below come from patent US20200276130A1.

Amino acid sequences for entries named in this document (tags omitted). A change or cut given only in a name is not applied to a line headed by its entry. Chains listed by the source or under a name are the forms on record and can include a tag or linker.
UniProt Q86X55: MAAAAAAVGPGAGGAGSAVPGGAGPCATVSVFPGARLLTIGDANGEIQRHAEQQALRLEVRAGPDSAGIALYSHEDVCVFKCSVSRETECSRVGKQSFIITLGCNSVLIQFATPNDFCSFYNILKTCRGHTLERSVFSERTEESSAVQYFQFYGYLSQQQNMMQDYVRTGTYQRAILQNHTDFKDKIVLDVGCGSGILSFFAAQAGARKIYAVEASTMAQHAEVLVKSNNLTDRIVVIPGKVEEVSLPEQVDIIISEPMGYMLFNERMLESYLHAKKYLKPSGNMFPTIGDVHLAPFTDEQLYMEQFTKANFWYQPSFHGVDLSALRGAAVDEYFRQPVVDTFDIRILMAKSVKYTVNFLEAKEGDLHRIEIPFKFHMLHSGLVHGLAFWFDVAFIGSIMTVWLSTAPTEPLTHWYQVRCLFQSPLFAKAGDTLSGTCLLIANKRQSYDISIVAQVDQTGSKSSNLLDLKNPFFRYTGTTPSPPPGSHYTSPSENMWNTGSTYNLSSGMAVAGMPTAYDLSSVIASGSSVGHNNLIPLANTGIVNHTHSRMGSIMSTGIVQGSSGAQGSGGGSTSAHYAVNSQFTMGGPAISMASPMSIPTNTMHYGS
UniProt P11940: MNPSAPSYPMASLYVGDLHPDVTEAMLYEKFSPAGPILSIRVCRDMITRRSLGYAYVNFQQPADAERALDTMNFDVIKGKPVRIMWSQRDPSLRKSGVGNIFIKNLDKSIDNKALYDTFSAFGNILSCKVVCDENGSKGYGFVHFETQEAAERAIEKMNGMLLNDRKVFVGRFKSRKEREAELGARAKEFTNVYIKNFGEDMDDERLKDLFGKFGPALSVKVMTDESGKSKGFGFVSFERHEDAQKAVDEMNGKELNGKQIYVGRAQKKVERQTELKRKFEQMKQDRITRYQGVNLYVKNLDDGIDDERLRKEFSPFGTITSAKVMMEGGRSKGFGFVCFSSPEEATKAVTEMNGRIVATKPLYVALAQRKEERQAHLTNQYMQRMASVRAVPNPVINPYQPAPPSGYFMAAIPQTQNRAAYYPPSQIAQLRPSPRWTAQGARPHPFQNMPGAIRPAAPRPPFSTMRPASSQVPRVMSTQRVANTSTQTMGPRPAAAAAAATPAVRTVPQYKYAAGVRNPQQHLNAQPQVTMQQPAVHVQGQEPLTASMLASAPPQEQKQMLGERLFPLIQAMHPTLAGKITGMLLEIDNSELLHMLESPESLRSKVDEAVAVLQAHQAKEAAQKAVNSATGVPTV
Flag-tagged PKM1 (pyruvate kinase M1) (P14618, form named): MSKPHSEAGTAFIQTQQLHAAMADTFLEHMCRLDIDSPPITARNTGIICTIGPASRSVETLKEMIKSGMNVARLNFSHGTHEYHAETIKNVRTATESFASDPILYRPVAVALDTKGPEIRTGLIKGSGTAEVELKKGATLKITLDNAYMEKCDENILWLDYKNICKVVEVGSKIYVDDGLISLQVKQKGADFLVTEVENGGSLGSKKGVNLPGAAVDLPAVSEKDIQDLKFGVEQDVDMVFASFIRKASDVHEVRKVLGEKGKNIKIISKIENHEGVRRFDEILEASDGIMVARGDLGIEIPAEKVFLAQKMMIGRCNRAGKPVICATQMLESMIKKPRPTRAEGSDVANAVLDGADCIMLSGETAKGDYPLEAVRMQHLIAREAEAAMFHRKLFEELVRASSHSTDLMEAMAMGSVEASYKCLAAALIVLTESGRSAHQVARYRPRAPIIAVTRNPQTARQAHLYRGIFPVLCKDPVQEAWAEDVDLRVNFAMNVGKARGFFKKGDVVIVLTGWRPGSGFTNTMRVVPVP

Test [1] concerns the target GST-CARM1 fusion protein (glutathione S-transferase tagged co-activator associated arginine methyltransferase 1) (UniProt Q86X55). In words: GST pull-down, anti-GST and anti-Flag Western blot. (In general: Immunoblotting shows a protein as a band on a membrane.)
Test [2] shares this target. In words: GST pull-down.
Test [3] has the same target. In words: GST pull-down with purified recombinant proteins, anti-Flag Western blot.

These are yes or no findings as the source states them, for the method shown. In cells and extracts the contact can be indirect. Some binding calls cover weakened binding; strength is not graded here.

Consider “Flag-tagged PABP1 (from UniProt P11940 1-636)”, for which the binding entry in test [1] is recorded as “binds”.

As for “Flag-tagged PKM1 (pyruvate kinase M1) (from UniProt P14618 1-531) (enzyme)”, the binding entry in test [2], in test [1] and in test [3] was “binds” in each case.
